Record: PubChem BioAssay AID743454 (Peter MacCallum Cancer Centre, 2014)

Screen: 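Knock-downs lowering viability or raising caspase 3/7 activity in vorinostat-treated resistant cells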 (primary screen)
Cells: human HCT116-VR colon cancer cells, selected for vorinostat resistance
Reagent: siRNA pool against human genes, 40 nM siRNA pool
Duration: vorinostat for 24 h, read-out about 72 h after transfection
Conditions: vorinostat at 2.5 µM final
Measurement: 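Two measures, CellTiter-Fluor viability and luminescent caspase 3/7 activity, each as fold change against same-plate mock wells, mean of duplicates, then screen-wide robust z-score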
Direction: viability robust z-score: higher = more viable cells than screen typical; caspase robust z-score: higher = more caspase 3/7 activity than screen typical
Call rule: 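Hits are knock-downs in viability class RV1/RV2 or caspase class CA1/CA2, excluding ones that killed cells in the no-drug cell-count arm; hits then retested with single siRNAs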
Shown is an unselected part of about 18,000 deposited reagents. 450 of them (2.5%) were called active. 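Single biological run; no consistent viability z cut-off exists, so the class columns, not z-scores, define the calls.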 Entries without a mark were called inactive.

Gene,viability hit class,caspase hit class,viability robust z-score,caspase robust z-score
REM1,no change,no change,0.7,0.38
GUCY2EP,no change,no change,0.82,-0.24
ROR2,no change,no change,0.34,0.79
AGBL3,no change,no change,-0.27,-0.86
LOC401052 (retired record),no change,no change,0.16,-0.5
CFH,no change,no change,1.68,-0.06
ABT1,no change,no change,0.38,0.52
KEL,no change,no change,0.3,1.17
CFAP77,no change,no change,-0.4,0.56
GPR55,no change,no change,0.3,-0.78
ZBTB47,no change,no change,-0.46,0.8
HOXC13,no change,no change,-0.55,0.38
ZNF260,no change,no change,0.82,-0.13
SMC1A,no change,no change,-0.14,-0.33
LCT,no change,no change,-0.33,-0.07
AKR1C8,no change,no change,-0.22,-0.57
TULP4,no change,no change,1.12,-0.99
PFDN1,no change,no change,0.44,0.65
KRIT1,no change,no change,-0.86,-0.38
CALML4,no change,no change,0.46,-0.64
ENPP4,no change,no change,-0.02,-0.57
SUSD2,no change,no change,-1.15,0.3
MAD2L1BP,no change,no change,-0.98,4.12
CNIH3,no change,no change,-0.66,0.25
AP1S1,no change,no change,0.89,2.25
RFC4,no change,no change,-0.32,-0.32
DNTTIP2,RV2 (reduced viability) (active),no change,-2.99,-1.09
ERO1A,no change,no change,-0.28,0.29
GHRH,no change,no change,-0.96,-0.89
PRM3,no change,no change,-0.35,-0.86
CCDC27,no change,no change,0.02,-1.01
FHIP1B,no change,no change,-1.27,0.22
PPP1R9B,no change,no change,-0.15,-0.47
ELMOD2,no change,no change,0.48,1.9
NID2,no change,no change,0.12,-1.12
AGPS,no change,no change,-1.25,-0.06

Quoted from above (12 entries):
Gene,viability hit class,caspase hit class,viability robust z-score,caspase robust z-score
MAD2L1BP,no change,no change,-0.98,4.12
CNIH3,no change,no change,-0.66,0.25
AP1S1,no change,no change,0.89,2.25
RFC4,no change,no change,-0.32,-0.32
DNTTIP2,RV2 (reduced viability) (active),no change,-2.99,-1.09
ERO1A,no change,no change,-0.28,0.29
GHRH,no change,no change,-0.96,-0.89
PRM3,no change,no change,-0.35,-0.86
CCDC27,no change,no change,0.02,-1.01
FHIP1B,no change,no change,-1.27,0.22
PPP1R9B,no change,no change,-0.15,-0.47
ELMOD2,no change,no change,0.48,1.9

Additional entries:
Gene,viability hit class,caspase hit class,viability robust z-score,caspase robust z-score
SMOC1,no change,no change,2.04,1.47
DRD5,no change,no change,0.52,-0.36
GPATCH2,no change,no change,0.22,-0.36
ZNF770,no change,no change,-1.61,0.93
FGF9,no change,no change,1.11,0.02
ADCY7,no change (active),CA2 (caspase activation),-0.07,5.14
PXMP2,no change,no change,0.3,0.42
VPS13B,no change,no change,0.14,-0.7
RBM28,no change,no change,-0.44,0.58
NRBP1,no change,no change,-0.15,-0.64
RIPPLY3,no change,no change,0.37,-0.02
SAXO6,no change,no change,1.37,0.03
RRP7A,no change,no change,-0.98,-1.09
PLCB2,no change,no change,0.92,1.96
EBP,no change,no change,-0.42,0.48
MMP8,no change,no change,1.2,-0.5
SLC16A4,no change,no change,1.29,-1.31
NPDC1,no change,no change,0.03,2.19
WWOX,no change,no change,-1.94,3.69
CSGALNACT1,no change,no change,-1.94,1.33
ACTR1A,no change,no change,0.74,1.15
DNAH8,no change,no change,0.37,-0.27
CNOT11,no change,no change,0.64,0.19
ASB13,no change,no change,1.23,-0.36
ZNF564,no change,no change,0.11,1.19
VAMP3,no change,no change,-1.5,0.55
SERPINB7,no change,no change,1.17,-1.04
SYNPR,no change,no change,-0.14,-0.22
SLCO2A1,no change,no change,0.5,-0.79
ARMCX6,no change,no change,0.63,0.01
H4C14,no change,no change,0.23,-1.05
CLCA3P,no change,no change,-0.04,-0.77
PRDX1,no change,no change,-1.03,-0.4
KREMEN1,no change,no change,0.05,-0.16
URM1,no change,no change,-0.27,-0.86
PKD1L1-AS1,no change,no change,-1.8,3.08
SPACA3,no change,no change,0.7,-0.21
